Source: PubChem BioAssay AID1159592 (NIAID, 2016)
Assay: 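Toll-like receptor pathway genes that R848 needs to send NF-kB into the nucleus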. System: RAW264.7 macrophages from mouse bearing reporters for p65 (GFP) and the Tnf promoter (mCherry). Reagent: single siRNA against mouse genes. Duration: 48 to 72 hours after siRNA transfection. Treatment: R848 TLR ligand for 40 minutes before fixation; dose not given. Measured: 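Replicate mean of robust z-score relative to negative-control wells, after median/MAD scaling by plate, for the imaged GFP-p65 nuclear-to-cytoplasmic ratio 40 minutes after R848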. Scale: NF-kB translocation z-score: higher = more p65 moved into the nucleus than in negative-control wells. Hit rule: 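Active when the replicate-mean z lies above 1.5 or below -1.5; the depositor also grades absolute z in steps of 1, 1.5, 2 and 2.5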. Meaning of the calls: active = strong change, either direction; inactive = little change.
The deposit covers 756 reagents; shown is a part drawn at random. 147 of all reagents (19%) were called active. 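Active covers both loss and gain of p65 entry; negative z means weaker NF-kB activation, positive means more nuclear p65.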 The numbers tell different reagents against one gene apart. The record does not give: the amount of reagent.

gene	siRNA no.	NF-kB translocation z-score, replicate mean	activity call
Map2k1 (mitogen-activated protein kinase kinase 1)	1	0.641	inactive
Map2k1 (mitogen-activated protein kinase kinase 1)	2	0.182	inactive
Map2k1 (mitogen-activated protein kinase kinase 1)	3	-0.583	inactive
Map2k1 (mitogen-activated protein kinase kinase 1)	4	1.78	active
Map2k1 (mitogen-activated protein kinase kinase 1)	5	0.584	inactive
Map2k1 (mitogen-activated protein kinase kinase 1)	6	1.05	inactive
Tbkbp1 (TBK1 binding protein 1)	1	-0.166	inactive
Tbkbp1 (TBK1 binding protein 1)	2	-0.533	inactive
Tbkbp1 (TBK1 binding protein 1)	3	1.68	active
Tbkbp1 (TBK1 binding protein 1)	4	0.145	inactive
Tbkbp1 (TBK1 binding protein 1)	5	0.175	inactive
Tbkbp1 (TBK1 binding protein 1)	6	0.41	inactive
Nfkb1	1	1.15	inactive
Nfkb1	2	-0.168	inactive
Nfkb1	3	0.178	inactive
Nfkb1	4	0.888	inactive
Nfkb1	5	-0.156	inactive
Nfkb1	6	0.621	inactive
Il1b (interleukin 1 beta)	1	0.819	inactive
Il1b (interleukin 1 beta)	2	-1.17	inactive
Il1b (interleukin 1 beta)	3	0.284	inactive
Il1b (interleukin 1 beta)	4	-0.28	inactive
Il1b (interleukin 1 beta)	5	-0.824	inactive
Il1b (interleukin 1 beta)	6	-0.218	inactive
Ikbke (inhibitor of kappaB kinase epsilon)	1	-0.00529	inactive
Ikbke (inhibitor of kappaB kinase epsilon)	2	-0.247	inactive
Ikbke (inhibitor of kappaB kinase epsilon)	3	-0.41	inactive
Ikbke (inhibitor of kappaB kinase epsilon)	4	0.0858	inactive
Ikbke (inhibitor of kappaB kinase epsilon)	5	0.326	inactive
Ikbke (inhibitor of kappaB kinase epsilon)	6	-1.17	inactive
Lbp (lipopolysaccharide binding protein)	1	-0.127	inactive
Lbp (lipopolysaccharide binding protein)	2	-1.32	inactive
Lbp (lipopolysaccharide binding protein)	3	0.989	inactive
Lbp (lipopolysaccharide binding protein)	4	-1.44	inactive
Lbp (lipopolysaccharide binding protein)	5	0.274	inactive
Lbp (lipopolysaccharide binding protein)	6	0.402	inactive
Tab3 (TGF-beta activated kinase 1/MAP3K7 binding protein 3)	1	-0.459	inactive
Tab3 (TGF-beta activated kinase 1/MAP3K7 binding protein 3)	2	-0.263	inactive
Tab3 (TGF-beta activated kinase 1/MAP3K7 binding protein 3)	3	-1.28	inactive
Tab3 (TGF-beta activated kinase 1/MAP3K7 binding protein 3)	4	0.364	inactive
Tab3 (TGF-beta activated kinase 1/MAP3K7 binding protein 3)	5	-1.01	inactive
Tab3 (TGF-beta activated kinase 1/MAP3K7 binding protein 3)	6	-0.353	inactive
Nfkbib	1	-1.3	inactive
Nfkbib	2	0.17	inactive
Nfkbib	3	0.88	inactive
Nfkbib	4	-0.639	inactive
Nfkbib	5	-1.83	active
Nfkbib	6	-1.67	active

Not a retest: an excerpt of the list.
gene	siRNA no.	NF-kB translocation z-score, replicate mean	activity call
Il1b (interleukin 1 beta)	1	0.819	inactive
Il1b (interleukin 1 beta)	2	-1.17	inactive
Il1b (interleukin 1 beta)	3	0.284	inactive
Il1b (interleukin 1 beta)	4	-0.28	inactive
